From PubChem BioAssay AID2549 (National Center for Advancing Translational Sciences (NCATS), 2010)
Hit rate of the full screen: of about 240,000 compounds, about 1,300 (0.54%) were called active. This list was built around the results that the source calls inconclusive (neither active nor inactive); the mix of calls is not that of the screen. Calls follow the shape of the dose curve; as a rule, active = well fitted inhibition curve with a large enough effect; inconclusive = small, poorly fitted or top-dose-only effect; inactive = flat fitted curve, though single readings scatter. Where the call is inconclusive, the potency comes from a doubtful curve fit.
Also: nearly all actives have a fitted effect of over 30% in size.
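For activity, negative = inhibition in this document: plate controls were vehicle for no effect and no enzyme for full effect.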
Potency is read from the fitted curve at half-maximal effect.

Chains of the proteins cited; added tags and fusions are not shown. Lines headed by an entry give the natural chain unless they say otherwise; changes in a name come on top.
UniProt P46063: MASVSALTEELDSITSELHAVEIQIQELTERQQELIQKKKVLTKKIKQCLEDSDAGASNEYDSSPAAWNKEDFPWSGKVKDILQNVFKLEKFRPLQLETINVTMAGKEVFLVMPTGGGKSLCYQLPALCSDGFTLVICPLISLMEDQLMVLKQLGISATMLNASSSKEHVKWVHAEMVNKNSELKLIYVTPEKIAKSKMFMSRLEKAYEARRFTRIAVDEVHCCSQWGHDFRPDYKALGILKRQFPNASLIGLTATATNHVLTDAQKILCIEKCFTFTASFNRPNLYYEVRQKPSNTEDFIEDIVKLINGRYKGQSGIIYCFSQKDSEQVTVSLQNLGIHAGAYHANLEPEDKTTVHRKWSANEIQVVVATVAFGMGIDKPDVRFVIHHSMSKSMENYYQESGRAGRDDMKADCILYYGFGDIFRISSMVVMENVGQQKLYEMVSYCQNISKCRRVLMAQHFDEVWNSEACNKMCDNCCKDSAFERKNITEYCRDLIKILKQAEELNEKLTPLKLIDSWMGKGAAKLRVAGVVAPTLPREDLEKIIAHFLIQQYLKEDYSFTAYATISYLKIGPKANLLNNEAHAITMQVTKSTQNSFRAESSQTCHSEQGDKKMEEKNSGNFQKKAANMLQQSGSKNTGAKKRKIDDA

These compounds were tested against ATP-dependent DNA helicase Q1 (Homo sapiens) (UniProt P46063) (assay: qHTS Assay for Inhibitors of RecQ-Like Dna Helicase 1 (RECQ1)). Conditions: RECQ1 DNA unwinding, red fluorescence kinetic read; activity, negative = inhibition: at 57.3 µM (top of the series); series mostly up to 57.3 µM.
How it was run: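 50 nM RECQ1T1 preincubated 15 min with compound in Tris pH 8.0 buffer with MgCl2, DTT, Tween-20 and 2.5 ug/ml poly(dI-dC); started with 200 nM TAMRA/BHQ-2 forked duplex and 2 mM ATP. Unwinding read as fluorescence (525/598 nm), two reads 2 h apart.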
`O=C(O)c1ccccc1Nc1cc(Cl)cc(Cl)c1` was tested, and the Potency was “inactive”.
`c1ccc2c(c1)CC/C2=N/Nc1nc2ccccc2[nH]1` was tested, and the Potency was active: 35.5 µM.
In the case of `COc1cc2c(cc1CC=C(C)C)C(=O)C[C@@H](c1ccc(O)cc1)O2`, the Potency is reported as “inactive”.
`COc1ccc(CCNC(=O)CCN2C(=O)C(C)Oc3ccc(C)cc32)cc1OC` (centres undefined) was tested, and the Potency was “inactive”.
In the case of `CCOC(=O)c1ccc(NS(=O)C23CC4CC(CC(C4)C2)C3)cc1` (centres undefined), the Potency is reported as inconclusive: 3.98 µM [inhibitor, partial curve].
For `Nc1ccc(N2CCCCC2)c2nonc12`, the Potency was inconclusive: 39.8 µM [inhibitor, single point].
`O=C(NO)c1ccc(C(=O)N(C2CCCCC2)C2CCCCC2)cc1` was tested, and the Potency was inconclusive: 28.2 µM [inhibitor, single point].
For `COc1ccc(-n2c(Cc3cccn3C)nnc2SCC(=O)Nc2ccc3c(c2)OCO3)cc1`, the Potency was inconclusive: 39.8 µM [inhibitor, single point].
With `Cc1c(C)n(C(=O)CSc2nc3ccccc3[nH]2)c2ccccc12` the Potency was active: 8.91 µM.
In the case of `COC(=O)c1cc(O)cc(OC)c1C(=O)c1c(O)cc(C)cc1O`, the Potency is reported as inconclusive: 35.5 µM [inhibitor, single point].
In the case of `CCc1nnc(NC(=O)Cc2sc(C)nc2-c2ccc(C)cc2)s1`, the Potency is reported as inconclusive: 39.8 µM [inhibitor, single point].
For `COCc1cc(C)n(CC(=O)N/N=C/c2ccc(-c3ccc(Cl)c(C(=O)O)c3)o2)c(=O)c1C#N`, the Potency was “inactive”.
In the case of `Oc1ccc(N=Nc2c(O)ccc3ccccc23)cc1`, the Potency is reported as active: 35.5 µM.
With `O=C(/C=C/c1cc[n+](CC(=O)c2ccc3cccc4c3c2CC4)cc1)c1ccc2cccc3c2c1CC3` the Potency was inconclusive: 31.6 µM [inhibitor, single point].
For `CCOc1[nH]c(/N=C/c2ccco2)c(C#N)c1C#N`, the Potency was “inactive”.
In the case of `COc1ccc2c(c1)nc(SCC(=O)c1ccc(Br)s1)n2C`, the Potency is reported as “inactive”.
For `O=C(CCS(=O)(=O)c1ccc(Br)cc1)NCc1cccs1`, the Potency was inconclusive: 35.5 µM [inhibitor, single point].
With `COc1cc(-c2cccs2)cc(=O)c2c(C)oc(C)c12` the activity, negative = inhibition was inconclusive: -34.1% [inhibitor].
With `CC(=O)C1=NOC(CNC(=O)c2c(-c3ccccc3Cl)noc2C)C1` (centres undefined) the Potency was inconclusive: 25.1 µM [inhibitor, partial curve, poor fit].
In the case of `CS(=O)(=O)N1Cc2ccccc2CC1C(=O)OCC(=O)Nc1ccc2ccccc2c1` (centres undefined), the Potency is reported as “inactive”.
With `CCN(CC)S(=O)(=O)c1cc(NC(=O)COC(=O)c2ccc(NC(=O)CC#N)cc2)ccc1C` the Potency was inconclusive: 44.7 µM [inhibitor, partial curve, poor fit].
`COc1cccc(CNC(=O)Cc2ccc(-n3c(=O)[nH]c4ccccc4c3=O)cc2)c1` was tested, and the Potency was inconclusive: 0.0282 µM [inhibitor, full curve, poor fit].
With `CCOC(=O)C1CCN(C(c2cc(OC)c(OC)c(OC)c2)c2sc3nc(C)nn3c2O)CC1` (centres undefined) the Potency was inconclusive: 3.55 µM [inhibitor, partial curve].
With `CCc1ccc2nc3nc(C)cc(C)c3c(N)c2c1` the Potency was “inactive”.
In the case of `Clc1cccc(Cl)c1Cn1c(-c2cccnc2Cl)nc2ccccc21`, the Potency is reported as inconclusive: 0.708 µM [inhibitor, partial curve, poor fit].
`COc1ncnc2c1NC1=C(S2)C(=NCCC(=O)O)CC(C)(C)C1` was tested, and the Potency was inconclusive: 25.1 µM [inhibitor, single point].
In the case of `CC(=O)N1N=C(c2ccco2)CC1c1cc2cc(C)ccc2nc1Cl` (centres undefined), the Potency is reported as “inactive”.
For `O=C(Nc1ncc2c(n1)-c1ccccc1OC2)c1ccc(Cl)cc1Cl`, the Potency was inconclusive: 39.8 µM [inhibitor, single point].
With `Cc1c(NC(=O)CSc2nc3ccccc3[nH]2)c(=O)n(-c2ccccc2)n1C` the Potency was inconclusive: 0.631 µM [inhibitor, single point].
With `CCOC(=O)Cc1csc(NC(=O)c2sc3nc4ccc(C)cc4cc3c2N)n1` the Potency was inconclusive: 39.8 µM [inhibitor, partial curve].
For `O=C(CSc1nnc(-c2ccco2)n1Cc1ccccc1)c1ccc(F)cc1`, the Potency was inconclusive: 31.6 µM [inhibitor, single point].
For `COC(=O)C(C)NC(=O)COc1ccc2ccccc2c1` (centres undefined), the Potency was inconclusive: 1.41 µM [inhibitor, partial curve, poor fit].
In the case of `Cc1cc2cccc(C)c2nc1SCC(=O)NNC(=O)c1ccco1`, the Potency is reported as inconclusive: 7.08 µM [inhibitor, partial curve].
`O=S(=O)([N-]c1nc2ccccc2nc1-[n+]1ccc(Cc2ccccc2)cc1)c1ccc(Br)s1` was tested, and the Potency was inconclusive: 0.178 µM [inhibitor, full curve].
With `O=C(c1cccc(S(=O)(=O)N2CCOCC2)c1)N1CCOCC1` the Potency was inconclusive: 39.8 µM [inhibitor, single point].
For `CCOc1cccc(C(=O)c2ccc(O)c(O)c2O)c1`, the Potency was inconclusive: 35.5 µM [inhibitor, single point].
With `COc1cccc(Nc2ncc3nc(-c4ccc(F)cc4)c(=O)n(CCC#N)c3n2)c1` the Potency was “inactive”.
With `CCN(CC)c1ccc(NC2CC(=O)N(CCc3ccc(OC)cc3)C2=O)cc1` (centres undefined) the Potency was inconclusive: 17.8 µM [inhibitor, partial curve, poor fit].
In the case of `Cc1nn(CCC(=O)NNC(=S)Nc2ccc(F)cc2)c(C)c1[N+](=O)[O-]`, the Potency is reported as “inactive”.
For `COC(=O)CCSCC(=O)N1N=C(c2ccc(Br)cc2)CC1c1cccc(OC)c1OC` (centres undefined), the Potency was inconclusive: 39.8 µM [inhibitor, single point].
`O=C(O)c1ccccc1-c1ccc(/C=C/c2cc(C(F)(F)F)[nH]c(=O)n2)o1` was tested, and the Potency was inconclusive: 35.5 µM [inhibitor, single point].
`CC(Sc1nc(N)cc(=O)[nH]1)C(=O)Nc1sc2c(c1C#N)CCCC2` (centres undefined) was tested, and the Potency was inconclusive: 20 µM [inhibitor, partial curve, poor fit].
For `O=C(Nc1ccccc1)NC1CC2CCC(C1)N2Cc1nnnn1Cc1ccc2c(c1)OCO2` (centres undefined), the Potency was inconclusive: 0.562 µM [inhibitor, partial curve, poor fit].
For `O=C(Nc1nnc(SCc2ccccc2)s1)c1cccs1`, the Potency was inconclusive: 0.794 µM [inhibitor, single point].
For `CCN1CCc2c(sc(N)c2C#N)C1`, the Potency was “inactive”.
For `COc1cc(C)cc(C(=O)O)c1C1=C(O)c2cccc(O)c2C(=O)C1=O`, the Potency was inconclusive: 28.2 µM [inhibitor, single point].
`NC1=NC(=O)/C(=C\c2ccco2)S1` was tested, and the Potency was inconclusive: 39.8 µM [inhibitor, single point].
`c1ccc(CN2OCC3Cn4c(nc5ccccc54)C32)cc1` (centres undefined) was tested, and the Potency was inconclusive: 0.355 µM [inhibitor, partial curve, poor fit].
For `COc1cccc(CNC(=O)Cc2nc3nc(C)cc(C)n3n2)c1`, the Potency was inconclusive: 8.91 µM [inhibitor, single point].
For `CS(=O)(=O)c1ccc2c(c1)sc1nc(=O)c(/C=C3/C=CC(=O)C(O)=C3)c(N)n12`, the Potency was active: 15.8 µM.
For `O=C(O)CCCn1c(=S)[nH]c2c(sc3ccc([N+](=O)[O-])cc32)c1=O`, the Potency was “inactive”.
For `O=[N+]([O-])c1cc(Cl)cc(/C=N/NC(=S)Nc2cc(S(=O)(=O)N3CCOCC3)ccc2Cl)c1O`, the Potency was inconclusive: 35.5 µM [inhibitor, single point].
`Cc1cccc(/C=C/C(=O)c2ccc(NC3=NCCCS3)cc2)c1` was tested, and the Potency was inconclusive: 39.8 µM [inhibitor, single point].
For `Cc1cccc(NC2=NC3(CCCCC3)N=C(N)N2)c1C`, the Potency was inconclusive: 31.6 µM [inhibitor, partial curve].
In the case of `CNC(=S)Nc1ccccc1-c1ccccc1`, the Potency is reported as “inactive”.
`COc1cccc(/C=c2\s/c(=C/C(=O)c3ccc(C)cc3)[nH]c2=O)c1OC` was tested, and the Potency was inconclusive: 22.4 µM [inhibitor, single point].
In the case of `O=c1cc(CSc2nnnn2-c2ccccc2)[nH]c2[nH]n(-c3ccccc3)c(=O)c12`, the Potency is reported as inconclusive: 39.8 µM [inhibitor, single point].
For `O=C(O)/C=C/C(=O)Nc1ccccc1C(=O)Nc1ccccc1`, the Potency was inconclusive: 28.2 µM [inhibitor, single point].
For `C[C@H]1C=CC(=O)C[C@H]1c1c(F)cccc1Cl`, the Potency was “inactive”.
With `O=C1c2ccccc2C(=O)C1(O)O` the Potency was active: 31.6 µM.
`CC(C)Nc1nnc(SCc2cc(=O)n3ccsc3n2)s1` was tested, and the Potency was inconclusive: 35.5 µM [inhibitor, single point].
In the case of `Cc1coc(C)c1C(=O)CC1(O)C(=O)N(C)c2ccc(Cl)cc21` (centres undefined), the Potency is reported as inconclusive: 39.8 µM [inhibitor, single point].
`Cc1cc(/C=C2/NC(=O)NC2=O)c(C)n1-c1ccc(N2CCOCC2)cc1` was tested, and the Potency was “inactive”.
For `CCOc1ccccc1N1CSC2=C(C#N)C(c3c(OC)ccc4ccccc34)CC(=O)N2C1` (centres undefined), the Potency was inconclusive: 28.2 µM [inhibitor, single point].
With `O=C(CCCN1C(=O)/C(=C/c2ccco2)SC1=S)Nc1ccccc1C(=O)O` the Potency was active: 8.91 µM.
In the case of `CC1CCCC(NC(=O)C2CCN(S(=O)(=O)N3CCOCC3)CC2)C1C` (centres undefined), the Potency is reported as inconclusive: 12.6 µM [inhibitor, partial curve].
`CCOC(=O)c1cnc2c(C(F)(F)F)cccc2c1N1CCOCC1` was tested, and the Potency was inconclusive: 0.178 µM [inhibitor, partial curve, poor fit].
For `O=C(Cn1cnc2sc(-c3ccccc3)cc2c1=O)NCc1ccco1`, the Potency was active: 20 µM.
With `COc1ccc(CNC(=O)CCS(=O)(=O)c2cccc3nonc23)cc1` the Potency was inconclusive: 0.501 µM [inhibitor, partial curve, poor fit].
